{"sequences": {"note": "Amino acid sequences for entries named in this document (tags omitted). Residues count along the entry.", "UniProt P01106, 369-449, stated change not applied": "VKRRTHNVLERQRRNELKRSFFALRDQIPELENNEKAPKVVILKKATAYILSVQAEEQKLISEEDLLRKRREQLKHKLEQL"}, "source": "paper PMC10324392", "target": "Myc DNA-binding domain (synthetic, S-arylated) Y402C, then Cys402 S-arylated with Pd-2 to a Tyr mimic (UniProt P01106)", "assay": "EMSA", "details": "Myc alone, 1 uM DNA, 0, 4, 8 uM protein; EMSA: 10 mM MES, 150 mM KCl, 1 mM MgCl2, 10% glycerol, room temperature 1 h, 10% TBE gel, pH not given", "note": "No signal at the amounts used counts as a negative."}
{"sequence": "CCGGCTGACACGTGGTATTAAT (double strand) [E-box DNA probe (22 bp)]", "values": [{"measurement": "binding result", "result": "no binding"}]}
